These are yes or no findings as the source states them, for the method shown. Binding seen in cells or lysates may run through a third protein. Where a sequence is shown, tags or fusion partners need not be part of it.
Target: HA-tagged Sam68 with P5 truncation (UniProt Q60749)
Test: co-IP; HA-Sam68^ΔP5 and Flag-CRTC2 (Supplementary Fig. 4j); cells and direction not given

Protein sequences, listed by entry. Tags and fused reporters are not part of them. Lines headed by an entry give the natural chain unless they say otherwise; changes in a name come on top.
UniProt Q60749: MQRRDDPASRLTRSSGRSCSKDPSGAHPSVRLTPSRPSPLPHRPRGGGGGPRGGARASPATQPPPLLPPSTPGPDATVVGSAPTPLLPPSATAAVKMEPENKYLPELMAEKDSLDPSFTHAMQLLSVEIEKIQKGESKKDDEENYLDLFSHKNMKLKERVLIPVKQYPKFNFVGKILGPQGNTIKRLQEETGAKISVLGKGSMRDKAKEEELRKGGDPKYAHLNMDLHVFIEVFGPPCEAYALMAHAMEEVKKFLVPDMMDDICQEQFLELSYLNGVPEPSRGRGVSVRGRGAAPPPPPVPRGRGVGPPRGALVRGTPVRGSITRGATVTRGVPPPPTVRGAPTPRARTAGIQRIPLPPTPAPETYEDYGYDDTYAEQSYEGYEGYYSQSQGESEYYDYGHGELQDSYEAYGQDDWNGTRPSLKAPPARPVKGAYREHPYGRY

B1: FLAG-tagged CRTC2 (protein, UniProt Q3U182 1-692)
chain: MATSGANGPGSATASASNPRKFSEKIALQKQRQAEETAAFEEVMMDIGSTRLQAQKLRLAYTRSSHYGGSLPNVNQIGCGLAEFQSPLHSPLDSSRSTRHHGLVERVQRDARRMVSPLRRYPRHIDSSPYSPAYLSPPPESGWRRMMPWGNLPAEKGQLFRLPSALNRTSSDSALHTSVMNPNPQDTYPGPTPPSVLPSRRGGGFLDGEMDAKVPAIEENVVDDKHLLKPWDAKKLSSSSSRPRSCEVPGINIFPSPDQPANVPVLPPAMNTGGSLPDLTNLHFPPPLPTPLDPEETVYPSLSGGNSTTNLTHTMTHLGISGGLGLGPSYDVPGLHSPLSHPSLQSSLSNPNLQASLSSPQPQLQGSHSHPSLPASSLAHHALPTTSLGHPSLSAPALSSSSSSSSTSSPVLSAPPYPASTPGASPRHRRVPLSPLSLPAGPADARRSQQQLPKQFSPTMSPTLSSITQGVPLDTSKLPTDQRLPPYPYSPPSLVIPTHPPTPKSLQQLPSQACLVQPSGGQPPGRQPHYGALYPPGSSGHGQQPYHRPINDFSLGNLEQFNMESPSTSLVLDPPAFSEGPGFLGSEGSMSGPQDPHVLNHQNLTHCSRHGSGPNIILTGDSSPGFSKEIAAALAGVPGFEVSASGLELGLGLEDELRMEPLGLEGLTMLSDPCALLPDPAVEDSFRSDRLQ
binding: no binding

From paper PMC8185084
